Taken from: PubChem BioAssay AID1259307 (Sanger Institute, 2017)
Screen: 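Identify kinases needed for SW620 growth or enhancing BYL719, cetuximab or trametinib effects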 (primary screen). Cells: SW620 colorectal cancer cells. Knock-down reagent: siRNA pool against human genes. Treatment: anchor drugs BYL719 at 1 µM, cetuximab at 5 µg/ml or trametinib at 10 nM, each beside a DMSO vehicle arm. Measured: 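Cell viability in each well relative to non-targeting controls, averaged over replicates and turned into a robust z-score; synergy with BYL719 (1 µM), cetuximab (5 µg/ml), trametinib (10 nM) versus DMSO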. Reading the numbers: viability robust z-score, no drug and viability vs control, no drug: higher = more viable cells; synergy score with BYL719 and synergy score with cetuximab and synergy score with trametinib: higher = stronger synthetic lethality with the drug. Hit rule: 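a knock-down counts as lethal alone if its drug-free robust viability z-score is lower than -3, regardless of synergy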. Calls: active = essential (lethal alone); inactive = no change alone.
In all, the deposit lists 794 reagents; this is a part drawn at random. 15 of all reagents (1.9%) count as active. 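Calls reflect lethality without any drug; synergy scores did not enter the calls.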 Viability is capped at 1. Not stated in the record: the amount of reagent, the time to read-out.

gene knocked down	viability robust z-score, no drug	viability vs control, no drug	synergy score with BYL719	synergy score with cetuximab	synergy score with trametinib	call
GATA3 (GATA binding protein 3)	0.614	0.989	-0.102	-0.0113	-0.031	inactive
BMP2K (BMP2 inducible kinase)	-1.08	0.832	-0.0191	-0.168	-0.201	inactive
RPS6KA2 (ribosomal protein S6 kinase A2)	-0.621	0.875	-0.0678	-0.0216	-0.00406	inactive
PRKDC (protein kinase, DNA-activated, catalytic subunit)	-0.594	0.877	-0.0189	0.0204	0.0861	inactive
DYRK1B	-0.497	0.886	-0.128	-0.114	-0.0867	inactive
PKN1 (protein kinase N1)	0.0298	0.935	0.00605	-0.0335	-0.0385	inactive
BMPR1B (bone morphogenetic protein receptor type 1B)	0.0417	0.936	-0.0775	-0.0641	-0.0792	inactive
BMX (BMX non-receptor tyrosine kinase)	0.736	1	-0.0919	0	0.00278	inactive
PI4K2B (phosphatidylinositol 4-kinase type 2 beta)	0.629	0.99	-0.0698	0.03	-0.00239	inactive
AMER1 (APC membrane recruitment protein 1)	0.736	1	-0.0919	0	-0.161	inactive
RAD21 (RAD21 cohesin complex component)	-0.46	0.89	-0.0444	-0.0638	-0.0518	inactive
BCR (BCR activator of RhoGEF and GTPase)	0.736	1	0.0486	0	0.0673	inactive
STK32C (serine/threonine kinase 32C)	0.736	1	-0.0624	0	-0.105	inactive
CLK2 (CDC like kinase 2)	0.596	0.987	-0.0691	-0.0129	0.0204	inactive
MAPK12 (mitogen-activated protein kinase 12)	0.736	1	0.00844	0	0.0228	inactive
PRKAB1 (protein kinase AMP-activated non-catalytic subunit beta 1)	-0.0213	0.93	0.132	-0.00675	-0.0574	inactive
PRKCQ (protein kinase C theta)	0.295	0.959	0.0189	0.0641	0.0713	inactive
SPEG (striated muscle enriched protein kinase)	0.736	1	-0.0269	0.0612	-0.00541	inactive
TEC (tec protein tyrosine kinase)	0.399	0.969	-0.12	-0.0311	-0.00452	inactive
UHMK1 (U2AF homology motif kinase 1)	0.736	1	0.0867	0.0523	0.0051	inactive

Laid out differently: 3 of the entries above.
MAPK12 (mitogen-activated protein kinase 12) — viability robust z-score, no drug: 0.736; viability vs control, no drug: 1; synergy score with BYL719: 0.00844; synergy score with cetuximab: 0; synergy score with trametinib: 0.0228; call: inactive
PRKAB1 (protein kinase AMP-activated non-catalytic subunit beta 1) — viability robust z-score, no drug: -0.0213; viability vs control, no drug: 0.93; synergy score with BYL719: 0.132; synergy score with cetuximab: -0.00675; synergy score with trametinib: -0.0574; call: inactive
PRKCQ (protein kinase C theta) — viability robust z-score, no drug: 0.295; viability vs control, no drug: 0.959; synergy score with BYL719: 0.0189; synergy score with cetuximab: 0.0641; synergy score with trametinib: 0.0713; call: inactive
